From paper PMC3288074, “Structural and Functional Analysis of Validoxylamine A 7′-phosphate Synthase ValL Involved in Validamycin A Biosynthesis” (PLoS ONE, 2012)
No constants are given. Whether binding was seen depends on the method and setting. Some results given as binding are weak or reduced against the parent protein; the word gives no strength.

Target: Validoxylamine A 7'-phosphate synthase ValL (Streptomyces hygroscopicus var. jinggangensis 5008) (UniProt H2K885)
Experiment: crystal structure; hanging-drop vapour diffusion, 10 mg/mL protein, 30% PEG 4000, 200 mM MgCl2, 100 mM Tris-HCl pH 8.5, 20°C; two molecules in the asymmetric unit; both purified

B1: Validoxylamine A 7'-phosphate synthase ValL (enzyme)
chain: TGSEIFLASKRAAITYDTDPATGEPRAWLAPGGTGNVVAEQAGVLNISWIASADSEDDRRASALNPDGVTMELHSGREILVRLIRHDPAVFRNVQNFMTANLMWAANNYGWDRWTQPSFGSDAREGWADFGRFTRDFADAILKSSAQSADPVYLVHDYQLVGVPALLREQRPDAPILLFVHIPWPSADYWRILPKEIRTGILHGMLPATTIGFFADRWCRNFLESVADLLPDARIDREAMTVEWRGHRTRLRTMPLGYSPLTLDGRNPQLPEGIEEWADGHRLVVHSGRTDPIKNAERAVRAFVLAARGGGLEKTRMLVRMNPNRLYVPANADYVHRVETAVAEANAELGSDTVRIDNDNDVNHTIACFRRADLLIFNSTVDGQNLSTFEAPLVNERDADVILSETCGAAEVLGEYCRSVNPFDLVEQAEAISAALAAGPRQRAEAAARRRDAARPWTLEAWVQAQLDGLAADHAARTATAERFDTAPAVSTRADL
notes: ValL, validoxylamine A 7'-phosphate synthase of the validamycin A gene cluster of Streptomyces hygroscopicus var. jinggangensis 5008; the encoded protein has 497 aa; gene valL cloned into pET28a between EcoRI and BamHI sites; Removal of the tag is not mentioned; The ValL/trehalose structure (3T7D) was obtained from selenomethionine-labelled ValL; the apo structure (3T5T) from native ValL; also …
Question: B1 was tested. Which binding did it give?
Answer: binds
